# According to article PMC5996148:
# Protein sequences, listed by entry. Tags and fused reporters are not part of them. Lines headed by an entry give the natural chain unless they say otherwise; changes in a name come on top.
# UniProt Q9NP72: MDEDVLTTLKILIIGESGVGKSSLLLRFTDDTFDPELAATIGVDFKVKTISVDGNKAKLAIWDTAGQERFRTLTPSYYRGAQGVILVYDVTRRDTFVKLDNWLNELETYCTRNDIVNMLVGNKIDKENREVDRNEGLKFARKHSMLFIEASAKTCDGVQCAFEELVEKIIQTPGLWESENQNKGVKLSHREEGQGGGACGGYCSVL
# The list shows a part of the results. For some assays here: The exact form of the protein is not confirmed.
# Columns and labels:
# Assay in all cases: protein microarray (ProtoArray v5.0), streptavidin-Alexa Fluor 647
# Details in all cases: 3'-biotin; 20 mM Tris (pH 7.5), 5 mM MgCl2, 100 mM KCl, 0.1% Tween-20, A/T-rich and random oligonucleotide blockers; temperature not stated; high values mean tight binding
# [1] = system: Pyruvate kinase isozymes R/L (human)
# QARS (human) = system: QARS (human)
# QPCTL (human) = system: QPCTL (human)
# [2] = system: Quinone oxidoreductase (human)
# RAB11B (human) = system: RAB11B (human)
# RAB14 (human) = system: RAB14 (human)
# RAB18 = RAB18 (UniProt Q9NP72)
# RAB1B (human) = system: RAB1B (human)
# RAB27A (human) = system: RAB27A (human)
# RAB2A (human) = system: RAB2A (human)
# RAB32 (human) = system: RAB32 (human)
# RAB33A (human) = system: RAB33A (human)
# RAB33B (human) = system: RAB33B (human)
# RAB34 (human) = system: RAB34 (human)
# RAB37 (human) = system: RAB37 (human)
# RAB39 (human) = system: RAB39 (human)
# RAB3B (human) = system: RAB3B (human)
# RAB3C (human) = system: RAB3C (human)
# RAB3IL1 (human) = system: RAB3IL1 (human)
# RAB43 (human) = system: RAB43 (human)
sequence,measurement,setting,value
GGGAGGCTGAGGCAGG [G4-1 biotinylated (PQS2)],binding signal,[1],-0.342 z-score
same,binding signal,QARS (human),-0.33 z-score
same,binding signal,QPCTL (human),-0.229 z-score
same,binding signal,[2],-0.274 z-score
same,binding signal,RAB11B (human),-0.264 z-score
same,binding signal,RAB14 (human),-0.312 z-score
same,binding signal,RAB18,-0.329 z-score
same,binding signal,RAB1B (human),-0.354 z-score
same,binding signal,RAB27A (human),-0.356 z-score
same,binding signal,RAB2A (human),-0.335 z-score
same,binding signal,RAB32 (human),-0.25 z-score
same,binding signal,RAB33A (human),-0.29 z-score
same,binding signal,RAB33B (human),-0.34 z-score
same,binding signal,RAB34 (human),-0.308 z-score
same,binding signal,RAB37 (human),-0.335 z-score
same,binding signal,RAB39 (human),-0.305 z-score
same,binding signal,RAB3B (human),-0.335 z-score
same,binding signal,RAB3C (human),-0.339 z-score
same,binding signal,RAB3IL1 (human),-0.319 z-score
same,binding signal,RAB43 (human),-0.307 z-score

# An excerpt of these results, tab-delimited.
sequence	measurement	setting	value
GGGAGGCTGAGGCAGG [G4-1 biotinylated (PQS2)]	binding signal	RAB18	-0.329 z-score
same	binding signal	RAB1B (human)	-0.354 z-score
